The other results are listed elsewhere or left out.
Columns and labels:
Assay in all cases: log2 fold change, soluble protein after heating vs DMSO (PISA); higher = thermal stabilisation; K562 lysate, 10 uM; active = over 0.2 and 3.5 SD of the protein, either way, in both replicates (recomputed)
[1] = compound: CCCS(=O)(=O)Nc1ccc(F)c(C(=O)c2c[nH]c3ncc(-c4ccc(Cl)cc4)cc23)c1F [vemurafenib]
Summary of the method: (§1)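 Dounce homogenisation of K562 pellets in PBS pH 7.4 with 1 mM MgCl2 produced a crude extract, used at 1 mg/mL protein. Exposure to 10 μM compound lasted 30 min, and aliquots were then heated for 3 min across 48°C-58°C, pooled and brought to 0.5% NP-40 at 4°C. The supernatant after 21,000xg for 90 min was quantified by TMTpro 16plex LC-MS/MS with channel sums equalised. Duplicate values are given as log-two fold change in thermal stability relative to solvent controls.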

By UniProt entry, the sequences of proteins in these tests, tags left out. Where a name states a change or a piece, a line headed by the entry shows the natural chain unless it says otherwise.
UniProt Q92782, whole entry, looked up: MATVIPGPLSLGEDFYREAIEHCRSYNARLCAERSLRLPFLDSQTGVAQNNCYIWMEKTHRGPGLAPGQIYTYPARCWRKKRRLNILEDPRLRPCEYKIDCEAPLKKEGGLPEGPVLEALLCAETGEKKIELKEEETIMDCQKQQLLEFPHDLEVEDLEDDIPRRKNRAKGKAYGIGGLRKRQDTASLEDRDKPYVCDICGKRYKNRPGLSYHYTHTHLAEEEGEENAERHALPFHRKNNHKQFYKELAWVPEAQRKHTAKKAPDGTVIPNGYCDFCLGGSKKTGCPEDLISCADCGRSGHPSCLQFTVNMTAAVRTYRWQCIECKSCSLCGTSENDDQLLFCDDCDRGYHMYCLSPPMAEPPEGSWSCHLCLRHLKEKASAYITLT
UniProt O60739, whole entry, looked up: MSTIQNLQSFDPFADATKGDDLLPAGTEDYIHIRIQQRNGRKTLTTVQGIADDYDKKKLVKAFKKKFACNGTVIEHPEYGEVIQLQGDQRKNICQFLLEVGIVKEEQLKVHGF
UniProt O95620: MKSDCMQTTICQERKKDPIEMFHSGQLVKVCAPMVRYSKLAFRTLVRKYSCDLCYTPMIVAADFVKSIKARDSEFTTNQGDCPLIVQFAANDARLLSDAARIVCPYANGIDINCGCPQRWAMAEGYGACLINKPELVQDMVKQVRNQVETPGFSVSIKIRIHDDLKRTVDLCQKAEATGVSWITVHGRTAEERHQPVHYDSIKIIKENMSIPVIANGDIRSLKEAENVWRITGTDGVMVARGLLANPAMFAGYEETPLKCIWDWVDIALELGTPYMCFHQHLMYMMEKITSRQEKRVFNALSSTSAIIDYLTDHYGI
UniProt Q05639, whole entry, looked up: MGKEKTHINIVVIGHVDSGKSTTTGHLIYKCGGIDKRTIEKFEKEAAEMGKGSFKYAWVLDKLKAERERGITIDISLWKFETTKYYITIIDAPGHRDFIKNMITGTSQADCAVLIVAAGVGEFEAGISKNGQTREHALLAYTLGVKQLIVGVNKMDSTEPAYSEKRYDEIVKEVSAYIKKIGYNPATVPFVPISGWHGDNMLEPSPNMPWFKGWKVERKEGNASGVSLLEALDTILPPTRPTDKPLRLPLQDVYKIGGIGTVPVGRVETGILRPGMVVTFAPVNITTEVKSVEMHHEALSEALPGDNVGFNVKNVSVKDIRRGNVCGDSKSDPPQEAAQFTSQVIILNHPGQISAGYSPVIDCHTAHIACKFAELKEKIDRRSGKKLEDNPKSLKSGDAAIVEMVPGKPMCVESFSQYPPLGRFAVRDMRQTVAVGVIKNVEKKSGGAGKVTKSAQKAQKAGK
UniProt O43237, whole entry, looked up: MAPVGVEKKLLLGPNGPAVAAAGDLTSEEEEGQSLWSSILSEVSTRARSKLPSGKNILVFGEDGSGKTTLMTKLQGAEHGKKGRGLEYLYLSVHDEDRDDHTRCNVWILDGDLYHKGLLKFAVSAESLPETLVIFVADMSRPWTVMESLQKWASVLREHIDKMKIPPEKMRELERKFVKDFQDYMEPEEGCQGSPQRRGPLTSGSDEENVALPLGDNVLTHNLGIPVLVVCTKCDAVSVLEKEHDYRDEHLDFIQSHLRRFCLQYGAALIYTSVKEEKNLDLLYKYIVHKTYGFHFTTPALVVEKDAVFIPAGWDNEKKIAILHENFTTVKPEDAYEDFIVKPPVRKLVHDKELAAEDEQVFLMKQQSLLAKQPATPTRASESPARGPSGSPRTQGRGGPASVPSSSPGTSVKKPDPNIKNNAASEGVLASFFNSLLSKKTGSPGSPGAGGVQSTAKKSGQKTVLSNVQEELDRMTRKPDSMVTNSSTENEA
UniProt Q7L8W6: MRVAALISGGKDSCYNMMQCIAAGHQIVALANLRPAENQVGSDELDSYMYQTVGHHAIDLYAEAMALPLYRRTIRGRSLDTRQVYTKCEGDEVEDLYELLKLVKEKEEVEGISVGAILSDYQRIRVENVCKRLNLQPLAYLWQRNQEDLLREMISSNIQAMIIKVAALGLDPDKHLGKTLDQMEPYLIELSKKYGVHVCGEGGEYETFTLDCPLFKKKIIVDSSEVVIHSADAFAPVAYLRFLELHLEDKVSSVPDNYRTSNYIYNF
UniProt Q9BUP0: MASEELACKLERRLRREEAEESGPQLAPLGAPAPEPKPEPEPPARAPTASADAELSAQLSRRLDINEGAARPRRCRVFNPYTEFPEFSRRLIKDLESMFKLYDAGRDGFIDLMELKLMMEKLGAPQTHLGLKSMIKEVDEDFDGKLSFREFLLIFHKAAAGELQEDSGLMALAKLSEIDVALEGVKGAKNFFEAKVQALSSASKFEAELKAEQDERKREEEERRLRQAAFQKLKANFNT
UniProt Q15075: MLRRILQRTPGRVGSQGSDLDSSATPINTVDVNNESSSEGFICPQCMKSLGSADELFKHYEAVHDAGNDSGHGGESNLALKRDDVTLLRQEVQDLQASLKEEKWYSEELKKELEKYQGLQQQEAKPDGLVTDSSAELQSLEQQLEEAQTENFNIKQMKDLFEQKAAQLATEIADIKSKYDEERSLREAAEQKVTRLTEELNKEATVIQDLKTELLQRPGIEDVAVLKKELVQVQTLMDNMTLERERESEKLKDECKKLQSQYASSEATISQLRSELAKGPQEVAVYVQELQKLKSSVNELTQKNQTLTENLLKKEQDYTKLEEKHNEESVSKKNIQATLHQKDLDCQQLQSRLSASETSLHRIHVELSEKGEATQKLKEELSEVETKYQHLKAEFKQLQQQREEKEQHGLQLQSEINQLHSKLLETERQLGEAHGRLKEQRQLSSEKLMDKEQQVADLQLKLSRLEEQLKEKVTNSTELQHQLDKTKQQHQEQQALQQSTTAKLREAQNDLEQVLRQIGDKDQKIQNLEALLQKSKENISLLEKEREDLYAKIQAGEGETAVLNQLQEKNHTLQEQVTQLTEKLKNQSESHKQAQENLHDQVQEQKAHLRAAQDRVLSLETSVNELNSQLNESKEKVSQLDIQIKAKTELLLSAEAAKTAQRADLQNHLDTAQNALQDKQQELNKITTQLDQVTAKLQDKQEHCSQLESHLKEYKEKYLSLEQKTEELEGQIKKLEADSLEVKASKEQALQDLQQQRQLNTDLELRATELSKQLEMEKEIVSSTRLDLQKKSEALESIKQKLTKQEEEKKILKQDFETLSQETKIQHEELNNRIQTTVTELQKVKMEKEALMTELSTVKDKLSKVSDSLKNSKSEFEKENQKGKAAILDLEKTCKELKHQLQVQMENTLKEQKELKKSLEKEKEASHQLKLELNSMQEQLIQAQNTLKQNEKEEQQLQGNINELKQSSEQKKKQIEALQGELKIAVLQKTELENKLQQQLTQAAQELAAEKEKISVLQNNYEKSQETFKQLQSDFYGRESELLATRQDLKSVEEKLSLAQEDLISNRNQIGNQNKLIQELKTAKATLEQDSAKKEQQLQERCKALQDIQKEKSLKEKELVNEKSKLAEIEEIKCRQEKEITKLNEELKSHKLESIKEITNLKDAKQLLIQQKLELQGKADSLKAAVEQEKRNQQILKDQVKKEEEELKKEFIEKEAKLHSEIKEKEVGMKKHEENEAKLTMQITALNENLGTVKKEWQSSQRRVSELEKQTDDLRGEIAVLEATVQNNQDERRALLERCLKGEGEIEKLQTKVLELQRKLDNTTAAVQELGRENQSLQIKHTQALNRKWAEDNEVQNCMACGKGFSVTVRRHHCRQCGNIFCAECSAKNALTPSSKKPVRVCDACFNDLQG
UniProt Q9NY33: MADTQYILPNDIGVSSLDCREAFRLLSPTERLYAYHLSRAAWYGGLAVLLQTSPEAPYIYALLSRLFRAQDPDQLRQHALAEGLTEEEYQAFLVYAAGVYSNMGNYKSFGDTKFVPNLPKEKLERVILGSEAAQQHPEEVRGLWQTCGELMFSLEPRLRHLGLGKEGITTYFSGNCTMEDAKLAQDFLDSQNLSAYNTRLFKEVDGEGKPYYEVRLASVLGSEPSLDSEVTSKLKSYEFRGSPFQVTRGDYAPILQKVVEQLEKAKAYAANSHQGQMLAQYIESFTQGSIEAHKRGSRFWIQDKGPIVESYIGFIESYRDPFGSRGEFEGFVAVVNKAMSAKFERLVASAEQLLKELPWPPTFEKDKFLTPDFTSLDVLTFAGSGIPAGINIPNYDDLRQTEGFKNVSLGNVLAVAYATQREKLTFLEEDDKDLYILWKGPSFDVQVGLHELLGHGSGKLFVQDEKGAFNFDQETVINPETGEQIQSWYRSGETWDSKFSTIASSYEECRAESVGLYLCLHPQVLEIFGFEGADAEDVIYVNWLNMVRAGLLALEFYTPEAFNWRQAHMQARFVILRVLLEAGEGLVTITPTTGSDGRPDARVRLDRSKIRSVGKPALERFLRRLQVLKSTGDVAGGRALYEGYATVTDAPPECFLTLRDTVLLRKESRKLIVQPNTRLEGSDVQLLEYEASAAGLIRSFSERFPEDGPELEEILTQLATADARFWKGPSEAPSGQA
UniProt Q9BY44: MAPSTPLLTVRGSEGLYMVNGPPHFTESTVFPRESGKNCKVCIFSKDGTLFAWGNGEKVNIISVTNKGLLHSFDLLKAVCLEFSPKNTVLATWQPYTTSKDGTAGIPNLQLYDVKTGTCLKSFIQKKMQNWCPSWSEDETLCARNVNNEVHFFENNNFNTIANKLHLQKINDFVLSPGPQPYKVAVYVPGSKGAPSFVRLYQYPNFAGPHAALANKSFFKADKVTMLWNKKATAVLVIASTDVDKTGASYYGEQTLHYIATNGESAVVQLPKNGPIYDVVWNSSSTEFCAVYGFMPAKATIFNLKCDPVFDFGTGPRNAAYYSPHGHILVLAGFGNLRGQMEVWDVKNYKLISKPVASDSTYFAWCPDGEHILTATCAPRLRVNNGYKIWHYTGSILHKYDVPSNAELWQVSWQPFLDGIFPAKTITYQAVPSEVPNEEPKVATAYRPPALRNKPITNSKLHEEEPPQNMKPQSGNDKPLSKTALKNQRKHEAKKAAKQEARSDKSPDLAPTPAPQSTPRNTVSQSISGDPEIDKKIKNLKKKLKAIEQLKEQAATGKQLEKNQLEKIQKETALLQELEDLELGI
UniProt Q9H8V3: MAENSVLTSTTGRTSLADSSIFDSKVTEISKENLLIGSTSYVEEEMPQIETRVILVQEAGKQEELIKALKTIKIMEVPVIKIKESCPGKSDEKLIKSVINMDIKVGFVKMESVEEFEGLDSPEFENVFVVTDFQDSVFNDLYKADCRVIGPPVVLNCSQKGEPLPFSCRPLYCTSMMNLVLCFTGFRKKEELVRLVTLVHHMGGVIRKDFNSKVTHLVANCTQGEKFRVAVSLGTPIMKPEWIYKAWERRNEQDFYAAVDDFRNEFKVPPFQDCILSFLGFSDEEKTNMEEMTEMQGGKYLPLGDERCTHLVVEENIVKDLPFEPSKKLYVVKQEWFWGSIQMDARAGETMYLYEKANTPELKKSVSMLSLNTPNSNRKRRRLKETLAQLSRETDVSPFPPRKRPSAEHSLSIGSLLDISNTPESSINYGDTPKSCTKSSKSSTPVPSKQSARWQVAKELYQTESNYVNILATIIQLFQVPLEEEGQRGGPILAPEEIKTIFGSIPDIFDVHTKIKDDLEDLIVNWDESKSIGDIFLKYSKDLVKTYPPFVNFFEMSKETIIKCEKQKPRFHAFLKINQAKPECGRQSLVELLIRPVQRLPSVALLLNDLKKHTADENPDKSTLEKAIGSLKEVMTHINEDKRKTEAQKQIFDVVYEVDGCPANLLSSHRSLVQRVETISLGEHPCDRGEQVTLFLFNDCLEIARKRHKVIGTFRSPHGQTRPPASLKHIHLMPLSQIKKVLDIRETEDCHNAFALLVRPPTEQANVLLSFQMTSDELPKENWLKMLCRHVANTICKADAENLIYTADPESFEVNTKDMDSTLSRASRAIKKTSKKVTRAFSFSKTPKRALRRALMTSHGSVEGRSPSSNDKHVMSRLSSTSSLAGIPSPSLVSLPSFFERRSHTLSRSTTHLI
UniProt P41567, whole entry, looked up: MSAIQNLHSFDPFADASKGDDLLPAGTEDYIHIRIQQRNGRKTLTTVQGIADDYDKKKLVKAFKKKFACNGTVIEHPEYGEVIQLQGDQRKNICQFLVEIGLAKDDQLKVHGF
UniProt Q8N7B9: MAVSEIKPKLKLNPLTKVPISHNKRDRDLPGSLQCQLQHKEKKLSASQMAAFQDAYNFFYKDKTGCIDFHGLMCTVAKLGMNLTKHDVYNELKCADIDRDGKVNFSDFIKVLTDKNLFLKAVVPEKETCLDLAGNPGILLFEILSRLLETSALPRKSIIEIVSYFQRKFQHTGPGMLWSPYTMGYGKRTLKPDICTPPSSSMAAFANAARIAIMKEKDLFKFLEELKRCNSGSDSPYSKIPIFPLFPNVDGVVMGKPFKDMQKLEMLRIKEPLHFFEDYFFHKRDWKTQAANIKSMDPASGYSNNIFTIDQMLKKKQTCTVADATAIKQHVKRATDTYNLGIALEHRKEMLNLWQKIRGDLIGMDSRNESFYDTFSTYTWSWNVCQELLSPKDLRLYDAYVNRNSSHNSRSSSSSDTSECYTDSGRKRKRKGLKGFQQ

[2] = compound: CCCS(=O)(=O)Nc1ccc(F)c(C(=O)c2c[nH]c3ncc(Cl)cc23)c1F
Summary of the method: as §1

[3] = compound: CCN(CCCOc1ccc2c(Nc3cc(CC(=O)Nc4cccc(F)c4)[nH]n3)ncnc2c1)CCOP(=O)(O)O [barasertib]
Summary of the method: as §1

[4] = compound: CC[C@@H]1C(=O)N(C)c2cnc(Nc3ccc(C(=O)NC4CCN(C)CC4)cc3OC)nc2N1C1CCCC1
Summary of the method: as §1

[5] = compound: CC[C@@H]1C(=O)N(C)c2cnc(Nc3ccc(C(=O)N[C@H]4CC[C@H](N5CCN(CC6CC6)CC5)CC4)cc3OC)nc2N1C(C)C [volasertib]
Summary of the method: as §1

[6] = compound: CCn1c(C(=O)N(C2CC2)C2CC2)cc2c3c(ncn3C)c(Nc3cc(C)n(C)n3)nc21
Summary of the method: as §1

[7] = compound: CCn1cc(-c2ccnc3[nH]c(-c4cccc(CN(C)C)c4)cc23)c(-c2ccc(NC(=O)N(C)C)cc2)n1
Summary of the method: as §1

[8] = compound: CN1CCC(CNc2ccc3ncc(-c4cccc(OC(F)(F)F)c4)n3n2)CC1
Summary of the method: as §1

[9] = compound: CN1CCN(CCOc2cc(OC3CCOCC3)c3c(Nc4c(Cl)ccc5c4OCO5)ncnc3c2)CC1 [saracatinib]
Summary of the method: as §1

[10] = compound: CN1CCN(c2nc(C3=C(c4c[nH]c5ccccc45)C(=O)NC3=O)c3ccccc3n2)CC1 [sotrastaurin]
Summary of the method: as §1

Measured: log2 fold change

EFNB1 (UniProt P98172)
inactive: [1] 0.105 | [2] 0.041 | [3] 0.211 | [4] 0.044 | [5] -0.013 | [6] -0.02 | [7] 0.043 | [8] 0.009 | [9] -0.013 | [10] 0.024

EEF1AKMT4 (UniProt P0DPD7)
inactive: [1] 0.135 | [2] 0.008 | [3] 0.126 | [4] -0.025 | [5] -0.072 | [6] -0.035 | [7] -0.129 | [8] 0.052 | [9] -0.033 | [10] -0.004

EI24 (UniProt O14681)
inactive: [1] 0.08 | [2] 0.028 | [3] 0.027 | [4] -0.063 | [5] 0.009 | [6] 0.048 | [7] 0.21 | [8] -0.084 | [9] -0.017 | [10] -0.055

ECHS1 (UniProt P30084)
inactive: [1] 0.008 | [2] 0.057 | [3] -0.005 | [4] -0.047 | [5] 0 | [6] 0.014 | [7] -0.009 | [8] -0.027 | [9] -0.002 | [10] 0.011

DPF1 isoform 2 (UniProt Q92782)
inactive: [1] 0.066 | [2] 0.038 | [3] 0.041 | [4] 0.07 | [5] -0.109 | [6] 0.017 | [9] 0.047 | [10] -0.047

EIF1B (UniProt O60739)
inactive: [1] -0.006 | [2] 0.029 | [3] 0.033 | [4] -0.045 | [5] 0.074 | [6] 0.01 | [7] 0.01 | [8] 0.052 | [9] -0.082 | [10] -0.124

EDF1 (UniProt O60869)
inactive: [1] -0.01 | [2] -0.042 | [3] -0.033 | [4] 0.062 | [5] 0.036 | [6] -0.06 | [7] -0.021 | [8] 0.053 | [9] 0.012 | [10] 0.025

DUS4L (UniProt O95620)
inactive: [1] 0.039 | [2] 0.056 | [3] -0.01 | [4] 0.033 | [5] -0.017 | [6] 0.045 | [7] -0.138 | [8] 0 | [9] 0.06 | [10] -0.032

EEF1AKNMT (UniProt Q8N6R0)
inactive: [1] -0.007 | [2] 0.041 | [3] 0.008 | [4] -0.08 | [5] -0.026 | [6] 0.053 | [7] -0.026 | [8] -0.031 | [9] -0.017 | [10] 0.008

EEF1A2 (UniProt Q05639)
inactive: [1] 0.005 | [2] 0.012 | [3] -0.024 | [4] -0.014 | [5] -0.024 | [6] -0.001 | [7] -0.048 | [8] -0.012 | [9] 0.046 | [10] -0.022

2 records drawn at random from the list so far, as already listed:
EFNB1 (UniProt P98172)
inactive: [1] 0.105 | [2] 0.041 | [3] 0.211 | [4] 0.044 | [5] -0.013 | [6] -0.02 | [7] 0.043 | [8] 0.009 | [9] -0.013 | [10] 0.024

EI24 (UniProt O14681)
inactive: [1] 0.08 | [2] 0.028 | [3] 0.027 | [4] -0.063 | [5] 0.009 | [6] 0.048 | [7] 0.21 | [8] -0.084 | [9] -0.017 | [10] -0.055

The results go on.

EHD1 (UniProt Q9H4M9)
inactive: [1] 0.032 | [2] 0.006 | [3] -0.021 | [4] -0.009 | [5] -0.037 | [6] 0.012 | [7] 0.035 | [8] -0.079 | [9] -0.012 | [10] 0.002

DYNC1I2 isoform 2 (UniProt Q13409)
inactive: [1] -0.073 | [2] 0.042 | [3] -0.123 | [4] 0.132 | [5] -0.039 | [6] 0.035 | [7] -0.022 | [8] 0.082 | [9] -0.077 | [10] 0.006

DYNC1LI2 (UniProt O43237)
inactive: [1] -0.007 | [2] -0.012 | [3] 0.004 | [4] 0.048 | [5] -0.008 | [6] -0.067 | [7] -0.036 | [8] -0.032 | [9] 0.001 | [10] -0.031

DUS1L (UniProt Q6P1R4)
inactive: [1] -0.049 | [2] -0.019 | [3] 0.02 | [4] -0.053 | [5] 0.011 | [6] -0.002 | [7] 0.137 | [8] 0.092 | [9] -0.067 | [10] 0.046

DYNC1I2 isoform 5 (UniProt Q13409)
inactive: [1] -0.015 | [2] 0.013 | [3] -0.03 | [4] -0.012 | [5] -0.013 | [6] -0.016 | [7] -0.017 | [8] 0.017 | [9] 0.003 | [10] -0.034

EDC3 (UniProt Q96F86)
inactive: [1] -0.011 | [2] 0.019 | [3] -0.01 | [4] 0.066 | [5] -0.016 | [6] -0.012 | [7] -0.017 | [8] -0.043 | [9] 0.006 | [10] 0.018

DPH6 (UniProt Q7L8W6)
inactive: [1] 0.047 | [2] 0.025 | [3] 0 | [4] 0.017 | [5] -0.055 | [6] 0.023 | [7] -0.002 | [8] 0.057 | [9] -0.006 | [10] 0.01

EFTUD2 (UniProt Q15029)
inactive: [1] 0.001 | [2] 0.021 | [3] -0.009 | [4] 0.008 | [5] 0.013 | [6] 0.009 | [7] 0.022 | [8] -0.005 | [9] 0.009 | [10] -0.006

EFHD1 (UniProt Q9BUP0)
inactive: [1] 0.019 | [2] 0.04 | [3] 0.001 | [4] -0.053 | [5] 0.019 | [6] 0.028 | [7] -0.09 | [8] 0.064 | [9] -0.016 | [10] 0.013

DPM1 (UniProt O60762)
inactive: [1] 0.055 | [2] 0.004 | [3] -0.021 | [4] 0.039 | [5] 0.001 | [6] -0.012 | [7] -0.013 | [8] -0.058 | [9] 0.036 | [10] 0.028

EEA1 (UniProt Q15075)
inactive: [1] -0.014 | [2] -0.005 | [3] -0.014 | [4] 0.016 | [5] 0.022 | [6] -0.012 | [7] 0.066 | [8] -0.006 | [9] -0.002 | [10] 0.008

DPP3 (UniProt Q9NY33)
inactive: [1] -0.014 | [2] -0.001 | [3] 0.013 | [4] -0.048 | [5] -0.027 | [6] 0.01 | [7] 0.069 | [8] -0.091 | [9] -0.023 | [10] -0.028

EIF2A (UniProt Q9BY44)
inactive: [1] 0.002 | [2] 0.015 | [3] -0.028 | [4] 0.006 | [5] -0.014 | [6] -0.01 | [7] -0.077 | [8] 0.015 | [9] -0.001 | [10] -0.031

ECT2 (UniProt Q9H8V3)
inactive: [1] -0.003 | [2] 0.03 | [3] -0.01 | [4] 0.068 | [5] -0.192 | [6] 0.07 | [7] -0.088 | [8] 0.167 | [9] 0.018 | [10] -0.06

EIF1 (UniProt P41567)
inactive: [1] 0.013 | [2] -0.014 | [3] -0.053 | [4] 0.053 | [5] 0.023 | [6] -0.05 | [7] 0.009 | [8] 0.084 | [9] -0.02 | [10] -0.042

EHBP1L1 (UniProt Q8N3D4)
inactive: [1] 0.01 | [2] 0.006 | [3] 0.04 | [4] -0.037 | [5] -0.019 | [6] 0.034 | [7] -0.042 | [8] 0.019 | [9] 0.027 | [10] -0.019

DST (UniProt Q03001)
inactive: [1] 0.23 | [2] 0.021 | [3] 0.083 | [4] 0.021 | [5] -0.045 | [6] -0.073 | [7] -0.174 | [8] 0.076 | [9] 0.052 | [10] -0.024

DSN1 (UniProt Q9H410)
inactive: [1] 0 | [2] 0.043 | [3] 0.007 | [4] 0.034 | [5] 0.001 | [6] 0.001 | [7] -0.017 | [8] 0.01 | [9] 0.034 | [10] 0.003

DTD1 (UniProt Q8TEA8)
inactive: [1] 0.015 | [2] -0.015 | [3] -0.004 | [4] -0.046 | [5] 0.051 | [6] -0.054 | [7] -0.01 | [8] 0.018 | [9] 0.048 | [10] 0.025

EFCAB3 (UniProt Q8N7B9)
inactive: [2] -0.066 | [5] 0.007 | [10] 0.046

Reference: the supplement of paper PMC10849652
